This assay has as its target T1, PDCD4 (endogenous) (human (endogenous in HEK293)) (UniProt Q53EL6).
T1 sequence: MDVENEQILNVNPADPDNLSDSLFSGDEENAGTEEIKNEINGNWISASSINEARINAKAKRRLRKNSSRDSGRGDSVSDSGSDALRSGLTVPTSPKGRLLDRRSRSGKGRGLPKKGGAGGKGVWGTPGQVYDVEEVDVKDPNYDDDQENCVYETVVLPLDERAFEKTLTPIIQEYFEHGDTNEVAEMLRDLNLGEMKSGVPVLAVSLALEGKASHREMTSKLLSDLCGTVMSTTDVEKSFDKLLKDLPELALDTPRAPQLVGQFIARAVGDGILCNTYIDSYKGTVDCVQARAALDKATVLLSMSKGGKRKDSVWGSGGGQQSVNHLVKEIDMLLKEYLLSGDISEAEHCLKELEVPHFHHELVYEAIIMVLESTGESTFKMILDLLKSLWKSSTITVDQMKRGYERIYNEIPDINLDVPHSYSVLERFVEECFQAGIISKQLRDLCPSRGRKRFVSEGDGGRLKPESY
The assay is described as follows: co-IP; endogenous proteins immunoprecipitated from H510 or HEK293 cells treated ± FGF-2; antibodies on Protein A or G magnetic beads; western blot. In general terms: A western blot detects proteins with antibodies after separation by electrophoresis.

Protein sequences, listed by entry. Tags and fused reporters are not part of them.
UniProt Q9UBS0: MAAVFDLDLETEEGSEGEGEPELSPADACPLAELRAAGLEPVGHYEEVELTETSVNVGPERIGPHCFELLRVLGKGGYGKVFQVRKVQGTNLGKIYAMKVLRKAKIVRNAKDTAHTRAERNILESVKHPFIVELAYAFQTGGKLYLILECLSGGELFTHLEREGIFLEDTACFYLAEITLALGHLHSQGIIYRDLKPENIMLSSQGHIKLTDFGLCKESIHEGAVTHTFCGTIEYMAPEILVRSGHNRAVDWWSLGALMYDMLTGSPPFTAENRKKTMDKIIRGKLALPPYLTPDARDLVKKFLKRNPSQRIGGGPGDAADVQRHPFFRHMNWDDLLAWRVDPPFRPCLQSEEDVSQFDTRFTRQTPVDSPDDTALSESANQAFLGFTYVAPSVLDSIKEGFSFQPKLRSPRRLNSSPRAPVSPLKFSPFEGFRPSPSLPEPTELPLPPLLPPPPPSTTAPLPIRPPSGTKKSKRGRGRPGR

No constants are given. Whether binding was seen depends on the method and setting. Binding seen in cells or lysates may run through a third protein. Some entries that bind do so weakly or less than the wild type.

For the substance “S6K2 (endogenous ribosomal S6 kinase 2) (from UniProt Q9UBS0 1-482) (enzyme)”, the binding entry is given as “binds”.

Source of the values: article PMC4227786.
